Assay results as given in publication PMC9887185.
These are yes or no findings as the source states them, for the method shown. Some binding calls cover weakened binding; strength is not graded here.

Target: T1, Arabidopsis AtSKD1 (SUPPRESSOR OF K+ TRANSPORT GROWTH DEFECT1) ATPase, pBD-AtSKD1 bait (Arabidopsis thaliana) (UniProt Q9ZNT0)
T1 sequence: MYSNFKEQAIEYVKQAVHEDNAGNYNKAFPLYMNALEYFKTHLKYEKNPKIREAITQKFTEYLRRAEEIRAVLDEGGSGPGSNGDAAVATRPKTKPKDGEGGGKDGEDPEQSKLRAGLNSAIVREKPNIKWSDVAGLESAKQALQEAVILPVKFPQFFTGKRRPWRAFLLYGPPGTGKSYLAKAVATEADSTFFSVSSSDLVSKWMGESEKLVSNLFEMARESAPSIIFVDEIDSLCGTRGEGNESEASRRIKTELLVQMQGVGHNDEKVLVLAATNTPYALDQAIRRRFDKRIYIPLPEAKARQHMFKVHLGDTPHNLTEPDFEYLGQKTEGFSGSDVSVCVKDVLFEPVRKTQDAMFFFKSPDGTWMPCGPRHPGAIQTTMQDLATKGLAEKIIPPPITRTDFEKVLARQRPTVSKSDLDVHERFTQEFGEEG
Experiment: two-hybrid; yeast co-transformed with pBD-AtSKD1 bait and pAD prey constructs; LacZ reporter, beta-galactosidase activity with ONPG as substrate; empty pAD-Gal4 vector as negative control

binding: binds
B1: Arabidopsis AtLIP5 (LYST-… PROTEIN5), pAD-AtLIP5 prey (protein, UniProt Q9SZ15 1-421)
chain: MSNPNEPARALLPYLQRADELQKHEPLVAYYCRLYAMERGLKIPQSERTKTTNSILMSLINQLEKDKKSLTLSPDDNMHVEGFALSVFAKADKQDRAGRADLGTAKTFYAASIFFEILSQFGPVPPDIEQKHKYAAWKAADIRKAIKEGRKPTPGDPVDDDTDLSIPSSGPSGSYDHSASDTNTTSHHRTELDPPHDSNDDSSHHQFPEVPQHPLPPRFYDNPTNDYPADVPPPPPSSYPSNDHLPPPTGPSDSPYPHPYSHQPYHQDPPKHMPPPQNYSSHEPSPNSLPNFQSYPSFSESSLPSTSPHYPSHYQNPEPYYSSPHSAPAPSSTSFSSAPPPPPYSSNGRINIAPVLDPAPSSAQKYHYDSSYQPGPEKVAEALKAARFAVGALAFDEVSTAVEHLKKSLELLTNPSAGAGH
